This is an account of results in article PMC11850942.

Chains of the proteins cited; added tags and fusions are not shown. Lines headed by an entry give the natural chain unless they say otherwise; changes in a name come on top.
UniProt Q04206: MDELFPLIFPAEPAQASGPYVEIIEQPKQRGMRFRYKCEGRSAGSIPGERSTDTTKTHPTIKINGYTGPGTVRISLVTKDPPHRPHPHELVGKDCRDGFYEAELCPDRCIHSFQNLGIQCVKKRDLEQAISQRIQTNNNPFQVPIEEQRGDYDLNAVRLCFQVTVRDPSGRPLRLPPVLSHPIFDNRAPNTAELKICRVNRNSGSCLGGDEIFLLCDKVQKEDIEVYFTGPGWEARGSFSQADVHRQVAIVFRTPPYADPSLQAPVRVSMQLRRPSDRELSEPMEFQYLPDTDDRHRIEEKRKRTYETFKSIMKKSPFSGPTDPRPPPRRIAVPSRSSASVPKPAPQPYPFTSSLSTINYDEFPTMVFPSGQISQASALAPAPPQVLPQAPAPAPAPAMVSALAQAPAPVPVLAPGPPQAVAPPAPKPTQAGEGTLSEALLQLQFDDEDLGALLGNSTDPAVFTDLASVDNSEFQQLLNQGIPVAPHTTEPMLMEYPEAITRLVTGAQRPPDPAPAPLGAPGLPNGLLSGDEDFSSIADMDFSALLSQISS
UniProt Q13950: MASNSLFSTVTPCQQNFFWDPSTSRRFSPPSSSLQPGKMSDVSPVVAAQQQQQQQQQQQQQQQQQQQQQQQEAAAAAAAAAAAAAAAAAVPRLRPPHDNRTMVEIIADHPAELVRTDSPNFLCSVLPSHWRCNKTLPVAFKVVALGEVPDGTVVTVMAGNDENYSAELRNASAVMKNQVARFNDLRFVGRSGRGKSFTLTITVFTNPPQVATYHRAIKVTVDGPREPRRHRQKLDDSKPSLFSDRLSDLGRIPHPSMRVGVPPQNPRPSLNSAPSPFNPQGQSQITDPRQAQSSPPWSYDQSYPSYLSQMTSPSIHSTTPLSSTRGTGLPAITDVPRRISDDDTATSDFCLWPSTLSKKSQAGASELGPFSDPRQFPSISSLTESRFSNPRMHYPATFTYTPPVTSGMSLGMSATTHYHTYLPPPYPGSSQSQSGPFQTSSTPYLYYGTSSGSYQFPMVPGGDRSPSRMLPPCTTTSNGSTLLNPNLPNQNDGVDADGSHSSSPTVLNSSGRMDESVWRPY
UniProt O15525: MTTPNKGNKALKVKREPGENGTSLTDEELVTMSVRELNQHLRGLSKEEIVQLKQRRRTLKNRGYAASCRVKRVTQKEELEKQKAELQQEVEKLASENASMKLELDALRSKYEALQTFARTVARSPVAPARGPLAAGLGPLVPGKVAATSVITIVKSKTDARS
UniProt Q15532: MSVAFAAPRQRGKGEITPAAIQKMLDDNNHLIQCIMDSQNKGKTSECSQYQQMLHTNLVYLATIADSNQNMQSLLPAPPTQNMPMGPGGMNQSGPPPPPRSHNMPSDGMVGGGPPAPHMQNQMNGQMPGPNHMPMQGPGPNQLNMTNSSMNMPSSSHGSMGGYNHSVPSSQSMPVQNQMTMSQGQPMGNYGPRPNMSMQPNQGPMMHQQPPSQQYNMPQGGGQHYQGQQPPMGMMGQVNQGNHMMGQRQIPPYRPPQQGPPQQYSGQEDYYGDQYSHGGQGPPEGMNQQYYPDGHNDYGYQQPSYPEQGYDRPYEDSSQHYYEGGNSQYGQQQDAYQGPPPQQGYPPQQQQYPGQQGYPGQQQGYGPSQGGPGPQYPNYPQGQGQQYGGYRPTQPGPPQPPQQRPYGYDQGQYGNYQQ
UniProt P62834: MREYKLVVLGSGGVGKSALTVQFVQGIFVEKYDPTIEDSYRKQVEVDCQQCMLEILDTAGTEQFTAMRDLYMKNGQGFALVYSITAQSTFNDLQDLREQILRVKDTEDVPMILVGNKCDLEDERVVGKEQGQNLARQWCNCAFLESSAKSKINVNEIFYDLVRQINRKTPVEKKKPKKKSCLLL
UniProt Q92908: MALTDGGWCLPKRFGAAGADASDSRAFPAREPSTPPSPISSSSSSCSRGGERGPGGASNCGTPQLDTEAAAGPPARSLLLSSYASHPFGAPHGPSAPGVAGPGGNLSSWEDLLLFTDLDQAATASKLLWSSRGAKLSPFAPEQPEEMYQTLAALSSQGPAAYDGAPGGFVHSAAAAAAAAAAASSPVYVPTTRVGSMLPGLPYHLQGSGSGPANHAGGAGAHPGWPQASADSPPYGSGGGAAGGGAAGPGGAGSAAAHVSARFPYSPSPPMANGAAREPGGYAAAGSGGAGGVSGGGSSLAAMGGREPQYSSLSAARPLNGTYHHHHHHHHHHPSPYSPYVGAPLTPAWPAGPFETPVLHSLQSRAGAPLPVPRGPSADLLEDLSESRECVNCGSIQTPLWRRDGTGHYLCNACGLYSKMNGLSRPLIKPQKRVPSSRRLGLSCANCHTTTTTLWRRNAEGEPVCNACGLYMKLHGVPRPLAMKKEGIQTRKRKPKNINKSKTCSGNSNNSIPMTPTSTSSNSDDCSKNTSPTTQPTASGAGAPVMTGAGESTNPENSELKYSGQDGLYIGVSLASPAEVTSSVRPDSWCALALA
UniProt O95409: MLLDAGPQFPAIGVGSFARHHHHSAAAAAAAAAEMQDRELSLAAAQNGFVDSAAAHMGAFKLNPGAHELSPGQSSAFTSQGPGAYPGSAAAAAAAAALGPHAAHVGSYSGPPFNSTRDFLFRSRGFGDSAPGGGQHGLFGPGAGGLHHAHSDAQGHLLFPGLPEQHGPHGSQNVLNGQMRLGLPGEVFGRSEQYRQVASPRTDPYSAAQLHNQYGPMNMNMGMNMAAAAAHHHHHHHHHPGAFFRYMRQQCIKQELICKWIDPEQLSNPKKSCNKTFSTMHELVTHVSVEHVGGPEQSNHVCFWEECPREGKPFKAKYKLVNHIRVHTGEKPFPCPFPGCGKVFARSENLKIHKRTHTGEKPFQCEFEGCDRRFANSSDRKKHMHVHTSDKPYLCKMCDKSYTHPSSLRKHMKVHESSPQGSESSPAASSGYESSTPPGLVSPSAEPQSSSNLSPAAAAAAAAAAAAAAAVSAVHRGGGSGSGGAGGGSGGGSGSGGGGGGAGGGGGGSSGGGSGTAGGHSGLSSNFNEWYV
UniProt P28360: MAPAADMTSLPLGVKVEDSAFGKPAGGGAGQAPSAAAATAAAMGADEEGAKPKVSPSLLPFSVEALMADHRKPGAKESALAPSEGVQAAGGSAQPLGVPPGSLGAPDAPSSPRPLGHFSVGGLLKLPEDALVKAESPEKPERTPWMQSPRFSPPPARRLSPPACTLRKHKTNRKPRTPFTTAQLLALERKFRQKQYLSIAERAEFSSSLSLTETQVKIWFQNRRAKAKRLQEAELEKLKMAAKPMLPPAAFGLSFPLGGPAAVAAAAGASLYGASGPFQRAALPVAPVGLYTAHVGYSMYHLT
UniProt P61224: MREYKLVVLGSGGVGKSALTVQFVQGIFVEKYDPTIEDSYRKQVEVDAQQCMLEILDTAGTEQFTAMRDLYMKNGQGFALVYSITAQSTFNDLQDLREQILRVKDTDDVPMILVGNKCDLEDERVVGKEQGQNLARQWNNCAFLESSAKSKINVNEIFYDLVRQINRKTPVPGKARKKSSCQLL

B1: ATXN1L (protein, UniProt P0C7T5 1-689)
chain: MKPVHERSQECLPPKKRDLPVTSEDMGRTTSCSTNHTPSSDASEWSRGVVVAGQSQAGARVSLGGDGAEAITGLTVDQYGMLYKVAVPPATFSPTGLPSVVNMSPLPPTFNVASSLIQHPGIHYPPLHYAQLPSTSLQFIGSPYSLPYAVPPNFLPSPLLSPSANLATSHLPHFVPYASLLAEGATPPPQAPSPAHSFNKAPSATSPSGQLPHHSSTQPLDLAPGRMPIYYQMSRLPAGYTLHETPPAGASPVLTPQESQSALEAAAANGGQRPRERNLVRRESEALDSPNSKGEGQGLVPVVECVVDGQLFSGSQTPRVEVAAPAHRGTPDTDLEVQRVVGALASQDYRVVAAQRKEEPSPLNLSHHTPDHQGEGRGSARNPAELAEKSQARGFYPQSHQEPVKHRPLPKAMVVANGNLVPTGTDSGLLPVGSEILVASSLDVQARATFPDKEPTPPPITSSHLPSHFMKGAIIQLATGELKRVEDLQTQDFVRSAEVSGGLKIDSSTVVDIQESQWPGFVMLHFVVGEQQSKVSIEVPPEHPFFVYGQGWSSCSPGRTTQLFSLPCHRLQVGDVCISISLQSLNSNSVSQASCAPPSQLGPPRERPERTVLGSRELCDSEGKSQPAGEGSRVVEPSQPESGAQACWPAPSFQRYSMQGEEARAALLRPSFIPQEVKLSIEGRSNAGK
B2: PBX2 (protein, UniProt P40425 1-430)
chain: MDERLLGPPPPGGGRGGLGLVSGEPGGPGEPPGGGDPGGGSGGVPGGRGKQDIGDILQQIMTITDQSLDEAQAKKHALNCHRMKPALFSVLCEIKEKTGLSIRSSQEEEPVDPQLMRLDNMLLAEGVAGPEKGGGSAAAAAAAAASGGGVSPDNSIEHSDYRSKLAQIRHIYHSELEKYEQACNEFTTHVMNLLREQSRTRPVAPKEMERMVSIIHRKFSAIQMQLKQSTCEAVMILRSRFLDARRKRRNFSKQATEVLNEYFYSHLSNPYPSEEAKEELAKKCGITVSQVSNWFGNKRIRYKKNIGKFQEEANIYAVKTAVSVTQGGHSRTSSPTPPSSAGSGGSFNLSGSGDMFLGMPGLNGDSYSASQVESLRHSMGPGGYGDNLGGGQMYSPREMRANGSWQEAVTPSSVTSPTEGPGSVHSDTSN
B3: HOMEZ (protein, UniProt Q8IX15 1-550)
chain: MVRGWEPPPGLDCAISEGHKSEGTMPPNKEASGLSSSPAGLICLPPISEELQLVWTQAAQTSELDSNEHLLKTFSYFPYPSLADIALLCLRYGLQMEKVKTWFMAQRLRCGISWSSEEIEETRARVVYRRDQLHFKSLLSFTHHAGRPPEEVPPPPVPAPEQVGIGIGPPTLSKPTQTKGLKVEPEEPSQMPPLPQSHQKLKESLMTPGSGAFPYQSDFWQHLQSSGLSKEQAGRGPNQSHGIGTASWNHSTTVPQPQARDKPPPIALIASSCKEESASSVTPSSSSTSSSFQVLANGATAASKPLQPLGCVPQSVSPSEQALPPHLEPAWPQGLRHNSVPGRVGPTEYLSPDMQRQRKTKRKTKEQLAILKSFFLQCQWARREDYQKLEQITGLPRPEIIQWFGDTRYALKHGQLKWFRDNAVPGAPSFQDPAIPTPPPSTRSLNERAETPPLPIPPPPPDIQPLERYWAAHQQLRETDIPQLSQASRLSTQQVLDWFDSRLPQPAEVVVCLDEEEEEEEEELPEDDEEEEEEEEEDDDDDDDDVIIQD
B4: ISL1 (protein, UniProt P61371 1-349)
chain: MGDMGDPPKKKRLISLCVGCGNQIHDQYILRVSPDLEWHAACLKCAECNQYLDESCTCFVRDGKTYCKRDYIRLYGIKCAKCSIGFSKNDFVMRARSKVYHIECFRCVACSRQLIPGDEFALREDGLFCRADHDVVERASLGAGDPLSPLHPARPLQMAAEPISARQPALRPHVHKQPEKTTRVRTVLNEKQLHTLRTCYAANPRPDALMKEQLVEMTGLSPRVIRVWFQNKRCKDKKRSIMMKQLQQQQPNDKTNIQGMTGTPMVAASPERHDGGLQANPVEVQSYQPPWKVLSDFALQSDIDQPAFQQLVNFSEGGPGSNSTGSEVASMSSQLPDTPNSMVASPIEA
B5: MAMLD1 (protein, UniProt Q13495 1-774)
chain: MDDWKSRLVIKSMLPHFAMVGNRQEPRKLQESGKKPSWMEEEDLSFLYKSSPGRKHQGTVKRRQEEDHFQFPDMADGGYPNKIKRPCLEDVTLAMGPGAHPSTACAELQVPPLTINPSPAAMGVAGQSLLLENNPMNGNIMGSPFVVPQTTEVGLKGPTVPYYEKINSVPAVDQELQELLEELTKIQDPSPNELDLEKILGTKPEEPLVLDHPQATLSTTPKPSVQMSHLESLASSKEFASSCSQVTGMSLQIPSSSTGISYSIPSTSKQIVSPSSSMAQSKSQVQAMLPVALPPLPVPQWHHAHQLKALAASKQGSATKQQGPTPSWSGLPPPGLSPPYRPVPSPHPPPLPLPPPPPPFSPQSLMVSCMSSNTLSGSTLRGSPNALLSSMTSSSNAALGPAMPYAPEKLPSPALTQQPQFGPQSSILANLMSSTIKTPQGHLMSALPASNPGPSPPYRPEKLSSPGLPQQSFTPQCSLIRSLTPTSNLLSQQQQQQQQQQQANVIFKPISSNSSKTLSMIMQQGMASSSPGATEPFTFGNTKPLSHFVSEPGPQKMPSMPTTSRQPSLLHYLQQPTPTQASSATASSTATATLQLQQQQQQQQQQPDHSSFLLQQMMQQPQRFQRSVASDSMPALPRQGCCHLFAWTSAASSVKPQHQHGNSFTSRQDPQPGDVSPSNITHVDKACKLGEARHPQVSLGRQPPSCQALGSESFLPGSSFAHELARVTSSYSTSEAAPWGSWDPKAWRQVPAPLLPSCDATARGTEIRSYGNDP
B6: NFYC (protein, UniProt Q13952 1-458)
chain: MSTEGGFGGTSSSDAQQSLQSFWPRVMEEIRNLTVKDFRVQELPLARIKKIMKLDEDVKMISAEAPVLFAKAAQIFITELTLRAWIHTEDNKRRTLQRNDIAMAITKFDQFDFLIDIVPRDELKPPKRQEEVRQSVTPAEPVQYYFTLAQQPTAVQVQGQQQGQQTTSSTTTIQPGQIIIAQPQQGQTTPVTMQVGEGQQVQIVQAQPQGQAQQAQSGTGQTMQVMQQIITNTGEIQQIPVQLNAGQLQYIRLAQPVSGTQVVQGQIQTLATNAQQGQRNASQGKPRRCLKETLQITQTEVQQGQQQFSQFTDGQRNSVQQARVSELTGEAEPREVKATGNSTPCTSSLPTTHPPSHRAGASCVCCSQPQQSSTSPPPSDALQWVVVEVSGTPNQLETHRELHAPLPGMTSLSPLHPSQQLYQIQQVTMPAGQDLAQPMFIQSANQPSDGQAPQVTGD
B7: EBF1 (protein, UniProt Q9UH73 1-591)
chain: MFGIQESIQRSGSSMKEEPLGSGMNAVRTWMQGAGVLDANTAAQSGVGLARAHFEKQPPSNLRKSNFFHFVLALYDRQGQPVEIERTAFVGFVEKEKEANSEKTNNGIHYRLQLLYSNGIRTEQDFYVRLIDSMTKQAIVYEGQDKNPEMCRVLLTHEIMCSRCCDKKSCGNRNETPSDPVIIDRFFLKFFLKCNQNCLKNAGNPRDMRRFQVVVSTTVNVDGHVLAVSDNMFVHNNSKHGRRARRLDPSEGTPSYLEHATPCIKAISPSEGWTTGGATVIIIGDNFFDGLQVIFGTMLVWSELITPHAIRVQTPPRHIPGVVEVTLSYKSKQFCKGTPGRFIYTALNEPTIDYGFQRLQKVIPRHPGDPERLPKEVILKRAADLVEALYGMPHNNQEIILKRAADIAEALYSVPRNHNQLPALANTSVHAGMMGVNSFSGQLAVNVSEASQATNQGFTRNSSSVSPHGYVPSTTPQQTNYNSVTTSMNGYGSAAMSNLGGSPTFLNGSAANSPYAIVPSSPTMASSTSLPSNCSSSSGIFSFSPANMVSAVKQKSAFAPVVRPQTSPPPTCTSTNGNSLQAISGMIVPPM
B8: HMG20B (protein, UniProt Q9P0W2 1-317)
chain: MSHGPKQPGAAAAPAGGKAPGQHGGFVVTVKQERGEGPRAGEKGSHEEEPVKKRGWPKGKKRKKILPNGPKAPVTGYVRFLNERREQIRTRHPDLPFPEITKMLGAEWSKLQPTEKQRYLDEAEREKQQYMKELRAYQQSEAYKMCTEKIQEKKIKKEDSSSGLMNTLLNGHKGGDCDGFSTFDVPIFTEEFLDQNKAREAELRRLRKMNVAFEEQNAVLQRHTQSMSSARERLEQELALEERRTLALQQQLQAVRQALTASFASLPVPGTGETPTLGTLDFYMARLHGAIERDPAQHEKLIVRIKEILAQVASEHL
B9: CRTC2 (protein, UniProt Q53ET0 1-693)
chain: MATSGANGPGSATASASNPRKFSEKIALQKQRQAEETAAFEEVMMDIGSTRLQAQKLRLAYTRSSHYGGSLPNVNQIGSGLAEFQSPLHSPLDSSRSTRHHGLVERVQRDPRRMVSPLRRYTRHIDSSPYSPAYLSPPPESSWRRTMAWGNFPAEKGQLFRLPSALNRTSSDSALHTSVMNPSPQDTYPGPTPPSILPSRRGGILDGEMDPKVPAIEENLLDDKHLLKPWDAKKLSSSSSRPRSCEVPGINIFPSPDQPANVPVLPPAMNTGGSLPDLTNLHFPPPLPTPLDPEETAYPSLSGGNSTSNLTHTMTHLGISRGMGLGPGYDAPGLHSPLSHPSLQSSLSNPNLQASLSSPQPQLQGSHSHPSLPASSLARHVLPTTSLGHPSLSAPALSSSSSSSSTSSPVLGAPSYPASTPGASPHHRRVPLSPLSLLAGPADARRSQQQLPKQFSPTMSPTLSSITQGVPLDTSKLSTDQRLPPYPYSSPSLVLPTQPHTPKSLQQPGLPSQSCSVQSSGGQPPGRQSHYGTPYPPGPSGHGQQSYHRPMSDFNLGNLEQFSMESPSASLVLDPPGFSEGPGFLGGEGPMGGPQDPHTFNHQNLTHCSRHGSGPNIILTGDSSPGFSKEIAAALAGVPGFEVSAAGLELGLGLEDELRMEPLGLEGLNMLSDPCALLPDPAVEESFRSDRLQ

These are yes or no findings as the source states them, for the method shown. In cells and extracts the contact can be indirect. Here binding means that the protein was enriched with, or labelled near, the bait; the list need not be complete.

For this assay, the target named is p65(wt)-HA-miniTurbo (human) (UniProt Q04206).
RUNX2 (from UniProt Q13950 1-521): the binding entry is on record as “binds”.

Turning to MAFG (from UniProt O15525 1-162), the binding entry was “binds”. To SS18 (from UniProt Q15532 1-418) belongs “binds”. To RAP1A (from UniProt P62834 1-184) belongs “binds”; to GATA6 (from UniProt Q92908 1-595), “binds”; to ZIC2 (from UniProt O95409 1-532), “binds”. As for MSX1 (from UniProt P28360 1-303), the binding entry was “binds”.

In the case of RAP1B (from UniProt P61224 1-184), the binding result is listed as “binds”. For B1, the binding result is listed as “binds”. With B2, the binding result is reported as “binds”. To B3 belongs “binds”; to B4, “binds”. Under B5 stands “binds”; under B6, “binds”. To B7 belongs “binds”. As for B8, the binding result is reported as “binds”. Under B9 stands “binds”.
